For part of its entries the source gives two or more results. This list holds those alone. An entry can have further records. Results that share an entry do not match, cause unknown; they may come from other doses, times, organisms or constructs than stated.
Tests used:
COX-2 [1] = target: T1, COX-2 (Homo sapiens, UniProt P35354); assay: Modified Assay for COX-1 and COX-2 Activity (PGE2 ELISA): COX-2; details: read-out: hCox-2 Modified IC50, human COX-2
COX-2 [2] = target: T1, COX-2; assay: Assay for COX-1 and COX-2 Activity (PGE2 ELISA): COX-2; details: read-out: hCox-2 IC50; human COX-2; standard assay

Chains of the proteins cited; added tags and fusions are not shown. Residues count along the entry.
UniProt P35354, 18-604 limits assumed: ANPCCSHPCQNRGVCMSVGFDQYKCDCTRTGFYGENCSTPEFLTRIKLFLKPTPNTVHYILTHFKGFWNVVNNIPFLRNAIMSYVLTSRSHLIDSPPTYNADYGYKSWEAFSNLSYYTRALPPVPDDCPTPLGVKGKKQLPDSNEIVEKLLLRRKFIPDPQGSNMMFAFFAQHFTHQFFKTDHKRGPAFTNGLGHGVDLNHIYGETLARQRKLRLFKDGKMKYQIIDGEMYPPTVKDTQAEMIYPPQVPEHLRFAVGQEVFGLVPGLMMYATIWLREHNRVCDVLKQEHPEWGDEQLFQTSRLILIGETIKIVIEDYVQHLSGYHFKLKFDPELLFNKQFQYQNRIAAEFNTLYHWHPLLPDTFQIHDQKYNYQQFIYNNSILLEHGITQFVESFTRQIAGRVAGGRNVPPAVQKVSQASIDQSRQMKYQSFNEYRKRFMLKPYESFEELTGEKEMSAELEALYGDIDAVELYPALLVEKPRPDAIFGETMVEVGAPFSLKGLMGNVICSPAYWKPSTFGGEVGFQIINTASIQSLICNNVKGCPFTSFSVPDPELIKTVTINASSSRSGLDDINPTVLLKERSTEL

Compound	IC50 (COX-2 [1])	IC50 (COX-2 [2])
O=C(O)C1=Cc2cc(-c3ccsc3)ccc2OC1C(F)(F)F (centres unmarked)	22.3 µM and > 100 µM	–
Cc1csc(-c2ccc3c(c2)C=C(C(=O)O)C(C(F)(F)F)O3)c1 (centres unmarked)	–	6.49 µM and 14.3 µM
O=C(O)C1=Cc2cc(-c3cccc4cccnc34)ccc2OC1C(F)(F)F (centres unmarked)	4.9 µM and 1.5 µM	–

Now from value to compound:

IC50 (COX-2 [1])	IC50 (COX-2 [2])	Compound
–	5.45 µM and > 11.1 µM	COc1ccc(-c2ccc3c(c2)C=C(C(=O)O)C(C(F)(F)F)O3)cc1OC (centres unmarked)
411 nM and 180 nM	–	O=C(O)C1=Cc2cc(-c3ccc4ccccc4c3)ccc2OC1C(F)(F)F (centres unmarked)

Reference: patent US20050148627A1 (priority 2003, published 2005)
